Experimental findings from paper PMC11164485 are described below.

Protein sequences, listed by entry. Tags and fused reporters are not part of them.
UniProt P52631: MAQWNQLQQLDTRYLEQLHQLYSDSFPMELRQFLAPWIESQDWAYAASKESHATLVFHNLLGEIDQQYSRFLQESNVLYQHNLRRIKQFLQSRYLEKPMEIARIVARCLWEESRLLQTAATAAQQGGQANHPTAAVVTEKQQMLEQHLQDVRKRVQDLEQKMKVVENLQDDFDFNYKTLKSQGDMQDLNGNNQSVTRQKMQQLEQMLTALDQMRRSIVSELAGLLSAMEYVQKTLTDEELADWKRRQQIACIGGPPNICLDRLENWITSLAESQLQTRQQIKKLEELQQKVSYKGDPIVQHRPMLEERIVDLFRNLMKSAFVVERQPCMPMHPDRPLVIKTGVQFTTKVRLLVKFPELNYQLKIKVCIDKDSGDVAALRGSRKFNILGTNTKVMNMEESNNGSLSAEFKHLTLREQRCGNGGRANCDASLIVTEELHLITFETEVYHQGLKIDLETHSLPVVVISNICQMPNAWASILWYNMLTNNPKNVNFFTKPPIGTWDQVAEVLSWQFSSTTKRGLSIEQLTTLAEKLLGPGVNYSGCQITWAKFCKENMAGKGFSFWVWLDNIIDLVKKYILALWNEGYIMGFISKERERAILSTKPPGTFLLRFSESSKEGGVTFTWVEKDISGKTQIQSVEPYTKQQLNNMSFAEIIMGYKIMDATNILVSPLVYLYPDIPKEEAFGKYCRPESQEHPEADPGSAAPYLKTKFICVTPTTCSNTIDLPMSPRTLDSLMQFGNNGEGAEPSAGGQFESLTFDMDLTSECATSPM

No constants are given. Whether binding was seen depends on the method and setting. In cells and extracts the contact can be indirect. Some results given as binding are weak or reduced against the parent protein; the word gives no strength.

For experiment [1], the target named is p-STAT3 (rat (endogenous in rat primary cardiomyocytes)) (UniProt P52631). The experiment can be described thus: co-IP; lysate of rat primary cardiomyocytes (IP lysis buffer) incubated with STAT3 antibody or p-STAT3 antibody at 4 C overnight, protein A/G beads 1 h at 4 C; IgG as negative control; APOC1 detected by western blot. For orientation: A western blot detects proteins with antibodies after separation by electrophoresis.

For experiment [2], the target named is STAT3 (rat (endogenous in rat primary cardiomyocytes)) (UniProt P52631). The experiment is described as above.

B1: APOC1 (protein, UniProt P19939 27-88)
chain: APDFSSAMESLPDKLKEFGNTLEDKARAAIEHIKQKEIMIKTRNWFSETLNKMKEKLKTTFA
For the molecule B1, the binding result in experiment [1] and in experiment [2] was “binds” throughout.
